# Values from PubChem BioAssay AID504791 (Drosophila RNAi Screening Center, 2011).
# Screen: 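Genes of the fly required for silencing by miRNA, siRNA or endo-siRNA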 (primary screen)
# System: Drosophila S2-derived reporter cells
# Reagent: long dsRNA against Drosophila genes, about 150-250 ng dsRNA per well (siRNA assay); about 80-120 ng (miRNA assay)
# Duration: about 5 days (siRNA assay); about 4 days (miRNA assay)
# Challenge: copper sulfate induction of reporters: 25 µM (siRNA assay); 200 mM stated (miRNA assay), 1-2 days before reading
# Measured: 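Dual luciferase assay: Renilla to firefly signal ratio in each well, scaled to the mean ratio of its plate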
# Reading the numbers: siRNA reporter hit score: higher = 3 marks a strong hit with raised ratio; -3 a strong hit with lowered ratio
# Rule for the call: 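a well was a first-pass pick when its plate-scaled ratio rose above 1.5 (siRNA assay) or 1.6 (miRNA assay), or dropped below 0.6; a gene counted only if two separate dsRNAs agreed on retest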
# The deposit covers about 23,000 reagents; this is a random part of those that have a named target and a result. In the full data, 199 (0.86%) got an active call. 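Plate-scaled ratios behind the calls are not deposited; printed light signals are raw; many rows marked increased or decreased are still called inactive.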 Names joined by + are all predicted targets of the reagent.
gene,DRSC id,siRNA reporter hit score,stable siRNA reporter change,miRNA reporter change,"stable assay Renilla, run 1 (luminescence)","stable assay firefly, run 1 (luminescence)",outcome
dgt6 (dim gamma-tubulin 6),DRSC14424,,,,7691,4.68e5,inactive
CG4582,DRSC15605,,,,6335,3.55e5,inactive
Fit2 (Fermitin 2),DRSC10908,,,,7302,2.53e5,inactive
CG9444,DRSC16493,,,,7639,3.86e5,inactive
CG13775,DRSC02279,,,,10430,7.50e5,inactive
wech,DRSC06606,,,,95123,1.87e6,inactive
CG4115,DRSC15545,,,,6032,3.93e5,inactive
Vajk1,DRSC01882,,,,8054,5.72e5,inactive
CG11883,DRSC06094,,,,7214,3.72e5,inactive
CG3515,DRSC00609,-3,,,8404,3.82e5,inactive
CG4610,DRSC04477,,,,7330,5.39e5,inactive
CG4610,DRSC22397,,,,5027,5.31e5,inactive
Ugt35A1 (UDP-glycosyltransferase family 35 member A1),DRSC16892,,,,7890,3.80e5,inactive
CG12617,DRSC02176,,,,7547,5.65e5,inactive
alphaTub67C (alpha-Tubulin at 67C),DRSC11321,,,,7861,4.40e5,inactive
Xpd (Xeroderma pigmentosum D),DRSC04666,-3,,,3.20e5,2.11e5,inactive
Dis3,DRSC16034,,,,9453,3.07e5,inactive
Acp53C14a (Accessory gland protein 53C14a),DRSC07224,,,,6003,2.91e5,inactive
WDR79 (WD repeat domain 79),DRSC03159,,reporter ratio raised past the hit cutoff,,14043,9.60e5,active
Tsf2 (Transferrin 2),DRSC09751,,,,7522,3.78e5,inactive
EndoGI (Endonuclease G inhibitor),DRSC01964,,,,6343,2.97e5,inactive
ovm + CG31975,DRSC22146,,,,10468,6.57e5,inactive
naz (nazgul),DRSC14790,,,,7279,3.11e5,inactive
naz (nazgul),DRSC16199,,,,6320,3.44e5,inactive
CG2129,DRSC18209,,,,9617,5.14e5,inactive
zda (zonda),DRSC06936,-3,,,11155,3.78e5,inactive
Taf12 (TBP-associated factor 12),DRSC16879,,,,7286,5.58e5,inactive
Taf12 (TBP-associated factor 12),DRSC28181,,,reporter ratio lowered past the hit cutoff,,,active
Rpt3 (Regulatory particle triple-A ATPase 3),DRSC20283,-3,,reporter ratio raised past the hit cutoff,4783,2.66e5,inactive
gl (glass),DRSC16957,,,,8219,4.08e5,inactive

7 entries from above, reduced to “stable assay firefly, run 1 (luminescence)”:
WDR79 (WD repeat domain 79) [DRSC03159]: 9.60e5
Tsf2 (Transferrin 2) [DRSC09751]: 3.78e5
EndoGI (Endonuclease G inhibitor) [DRSC01964]: 2.97e5
ovm + CG31975 [DRSC22146]: 6.57e5
naz (nazgul) [DRSC14790]: 3.11e5
naz (nazgul) [DRSC16199]: 3.44e5
CG2129 [DRSC18209]: 5.14e5

The listing continues:
gene,DRSC id,siRNA reporter hit score,stable siRNA reporter change,miRNA reporter change,"stable assay Renilla, run 1 (luminescence)","stable assay firefly, run 1 (luminescence)",outcome
fand (fandango),DRSC06967,,,,9305,6.79e5,inactive
anne (anne boleyn),DRSC17103,,,,8188,4.79e5,inactive
nab,DRSC08455,,,,6727,3.57e5,inactive
nab,DRSC08456,,,,6270,3.79e5,inactive
Lcp3 (Larval cuticle protein 3),DRSC07457,,,,5748,3.02e5,inactive
unc80 (uncoordinated 80),DRSC15329,,,reporter ratio raised past the hit cutoff,6982,4.47e5,inactive
bsf (bicoid stability factor),DRSC02035,,,,6110,1.05e6,inactive
RpL41 (Ribosomal protein L41),DRSC22958,,,,5355,6.45e5,inactive
CG11149,DRSC02130,,,,7434,4.61e5,inactive
CG33060,DRSC09939,,,,8339,3.91e5,inactive
fs(1)N (female sterile (1) Nasrat),DRSC18578,,,,5758,3.78e5,inactive
pio (piopio),DRSC04386,,,reporter ratio raised past the hit cutoff,50540,2.00e6,inactive
ImpE1 (Ecdysone-inducible gene E1),DRSC11195,,,,6556,4.06e5,inactive
ImpE1 (Ecdysone-inducible gene E1),DRSC11196,,,,6327,4.99e5,inactive
Hinfp (Histone H4 transcription factor),DRSC18484,,,,6075,4.63e5,inactive
CR32028 (retired record),DRSC22959,,,,4539,4.90e5,inactive
Slbp (Stem-loop binding protein),DRSC16863,,,,5916,4.08e5,inactive
Roe1,DRSC07534,,,,8219,5.94e5,inactive
CG7330,DRSC10813,,,,7356,3.43e5,inactive
CG7330,DRSC10814,,,,7951,4.55e5,inactive
CG6454,DRSC16044,,,,9429,3.49e5,inactive
Ugt317A1 (UDP-glycosyltransferase family 317 member A1),DRSC04470,,,,6184,4.17e5,inactive
Trf2 (TATA box binding protein-related factor 2),DRSC18727,3,,,4235,2.78e5,inactive
CG15046,DRSC19622,,,,7408,5.85e5,inactive
HemK2 + Snapin,DRSC00736,,,,12419,8.19e5,inactive
HemK2 + Snapin,DRSC00737,,,,8155,4.79e5,inactive
CG9300,DRSC11064,,,,7590,4.05e5,inactive
